Results as given in the supplement of paper PMC3334620.
The full ranking holds about 33,000 sequences; the median of “E-score (-0.5 to 0.5)” is about -0.0059, and the highest 2% start at about 0.26. Some of the results follow.

Target: T1, Cin5 (UniProt P40917)
T1 sequence: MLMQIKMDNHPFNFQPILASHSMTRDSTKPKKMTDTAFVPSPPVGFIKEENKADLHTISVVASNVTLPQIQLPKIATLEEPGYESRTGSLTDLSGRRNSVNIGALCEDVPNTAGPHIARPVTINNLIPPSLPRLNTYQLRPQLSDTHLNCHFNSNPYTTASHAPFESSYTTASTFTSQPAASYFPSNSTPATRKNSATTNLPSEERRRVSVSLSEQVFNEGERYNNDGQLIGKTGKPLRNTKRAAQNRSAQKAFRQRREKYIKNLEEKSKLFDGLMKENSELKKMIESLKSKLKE
Test: PBM E-score (8-mer binding enrichment) (E-score (-0.5 to 0.5)); higher = stronger / more preferred TF binding
Conditions: protein concentration: 100 nM; construct: GST-full length
Summary of the method: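 Each ungapped eight-base word and its reverse complement, pooled, received an E-score from the Universal PBM Analysis Suite. Underlying scans, normalised with masliner, recorded fluorescent anti-GST bound to GST-tagged yeast transcription factors. These were applied at about 100-200 nM to universal all-10-mer Agilent arrays double-stranded by primer extension.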

Sequence	PBM E-score
ACTGGGAC	-0.0335
AGACGATC	-0.112
CATACCAA	0.0761
CTGCGTTC	0.0991
CCGGAGTA	0.0162
GGAAGGTA	-0.116
GAGTAACC	0.0406
GAGGGGCA	-0.283
CTGTATGC	-0.234
GAAAGATC	0.0615
GGGGGGAA	-0.354
CAATGAGG	-0.205
AGTGCTAT	0.0853
CAATAGGC	-0.0915
AAGGCGCA	0.0474
AGAGAAAC	0.00738
CCAATGCA	-0.00952
AACCGGCC	-0.206
GTGACTGA	0.125
GCGAGAAA	-0.0209
GTAAACGA	-0.0549
TAACGTCA	0.17
CTGGGGCA	-0.193
AGAACCCC	-0.0371

A different layout for part of the listing above:

| Sequence | PBM E-score |
| --- | --- |
| AGAGAAAC | 0.00738 |
| CCAATGCA | -0.00952 |

The list goes on:

Sequence	PBM E-score
TGTATGAA	0.076
AACTTCAT	0.0957
GGGATTCA	-0.0282
CCTGTTCG	-0.124
CTCGTATA	-0.00647
ACTGCCTA	-0.0561
AAAAGTAA	0.243
CCACCTCG	-0.147
CCGAAAGG	-0.0852
CACGACGG	0.127
CGATAGCC	-0.0305
AGGTGAAT	0.099
ACATCCAG	0.00276
ATTGAACG	-0.00661
ATCGTTGC	-0.0956
CTGGTAAA	0.0543
GCTATCCC	-0.129
ACGCTTTG	0.0422
CAGCCTAG	0.00584
AAGCAAAT	0.0892
AGGACCAG	-0.0998
ATCACGAG	-0.0696
AGCGTAAG	0.0638
AGCCGCCT	-0.187

Sequence	PBM E-score
GGCACAGA	-0.0865
CGCGGACG	-0.00041
ACTCTGAT	0.0517
ACTGGCGC	0.0509
CCCTTCTA	-0.12
GCAGCGAC	-0.223
GGTTGCCA	-0.021
AGCCCCCG	-0.396
CGCCAACG	-0.1
ACAAGATA	0.136
GGACGGAA	0.0842
CATGTCGC	-0.00929
ACGTCCCA	-0.162
AGCTAGGC	-0.14
ACTGCGAA	-0.0346
AGGGTAGA	-0.207
GGTACGGA	0.0166
CTAAGCGA	0.0261
ATGACTAC	0.036
CCAGTAAG	-0.0267
GCGCAGCA	-0.288
GCTCCTAC	-0.183
CGCTTCTA	-0.0331
GCACACTA	0.0421

Sequence	PBM E-score
TGCTAGCA	0.00216
GCGTTTAA	-0.0302
CCGCCTTC	-0.192
AAGTGCGA	-0.137
CCCGAAGG	-0.0577
CCACTGTC	-0.162
AGTTAAAG	-0.037
ACCATCTG	-0.0954
CCTTCCTA	-0.305
CGCGCGAA	0.111
AGAACGCG	0.0147
CCAGGAAA	0.0733
AAGCGAAA	0.173
GACGGCGA	-0.17
ACATTCCG	0.147
AACGAAGT	-0.148
AACACATG	0.118
CTCAGCAA	0.0669
CAGGGCTA	-0.21
AGTCTATA	-0.18
AATTAAAG	0.0445
ACCGTGGC	-0.199
